The list shows a part of the results. The main result of the screen is listed elsewhere. These columns were measured beside it and carry no call. Compounds called inactive in the main read-out are mostly missing here. Words in brackets tell the shape of the fitted curve; partial curves, single points and poor fits give uncertain potencies.

Experimental findings from PubChem BioAssay AID445 (National Center for Advancing Translational Sciences (NCATS), 2006) are described below.

The test can be described thus: IkB Signaling. As to conditions: ABC-DLBCL IkBa-CBG/CBR dual luciferase ratio (green luciferase fused to IkBa over red control in OCI-Ly3 lymphoma cells), 4 h; measured here: control luc red channel unless noted. The gist of the method: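 Curves were fitted separately to fusion (green), unfused (red) and ratio luminescence, then classed by r2, magnitude and activity. Cells: OCI-Ly3, 4 h compound plus doxycycline at 37C; 10 uM MG-132 defined full response.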
As a reminder, the AC50 is the midpoint of the concentration-response curve, whichever way the signal moves. Regarding `Cc1ccc2c(c1)c(=O)c(S(=O)(=O)c1ccc(F)cc1)cn2CC(=O)Nc1ccc2c(c1)OCO2`, the AC50 is 6.31 µM [falling, partial curve].

Take `c1ccc(CC2CCN(c3nc4ccccc4n4nnnc34)CC2)cc1`: the concentration at half-maximal activity (AC50) is 3.98 µM [falling, partial curve].

Consider `CC(C)(C)C1CCc2c(sc(NC(=O)c3ccccc3F)c2C(=O)N2CCCCC2)C1` (stereo unspecified), for which the AC50 was 25.1 µM [falling, partial curve]. In the case of `COc1ccc(NC2=C(C)C(=O)CC2)cc1`, the AC50 was 20 µM [rising, partial curve] [measured here: IkB-luc green channel].

Regarding `CCOC(=O)c1cccc(NC(=O)CC(c2ccc(F)cc2)N2Cc3ccccc3C2=O)c1` (stereo unspecified), the AC50 is 6.31 µM [falling, single point].

Regarding `CCCOc1ccc(OC(=O)c2sc3ncn(Cc4cccc(F)c4)c(=O)c3c2C)cc1`, the AC50 is 1.26 µM [falling, full curve, poor fit]. On to `CN(C(=O)c1cc2sccc2n1C)C1CCCCC1`, for which the AC50 is 10 µM [falling, partial curve].

For `COc1ccccc1Nc1nc(-c2cccs2)cs1`, the AC50 was 6.31 µM [falling, full curve, poor fit]. Then `Cc1nc2cc(-c3cccc(F)c3)nn2c(C)c1CCC(=O)N1CCN(c2ccc(F)cc2)CC1`, with 2.51 µM [falling, partial curve].

For the compound `Cc1cccc(-c2noc(CN(C(=O)c3ccc(C)c(C)c3)C(C)C)n2)c1`, the concentration at half-maximal activity (AC50) is 15.8 µM [falling, partial curve]. Take `Cc1csc2nc(-c3cccc(NC(=O)c4cccc(F)c4)c3)cn12`: the AC50 is 39.8 µM [falling, partial curve]. Consider `CCOc1ccc(CCNC(=O)C2=C(C)C(=O)OC23CCC(C)CC3)cc1OCC` (stereo unspecified), for which the AC50 was 3.98 µM [falling, single point]. With `O=C(CN(C(=O)c1cc2c(s1)CCC2)C1CCCC1)NCc1cccs1`, the concentration at half-maximal activity (AC50) is 12.6 µM [falling, partial curve]. As for `Cc1ccc(C(=O)c2oc3ccccc3c2NC(=O)c2nc(S(C)(=O)=O)ncc2Cl)cc1F`, the AC50 was 39.8 µM [falling, single point]. `CCOC(=O)Cn1c(=O)oc2cc(S(=O)(=O)NCc3ccc(F)cc3)ccc21`: the AC50 was 31.6 µM [falling, single point].

As to `O=C1CC(c2ccccc2)Cc2[nH]c(=O)c(-c3nc(-c4cccc(Cl)c4)cs3)cc21` (stereo unspecified), the AC50 was 10 µM [falling, partial curve].

As to `COc1ccc(-c2cc(C(=O)N3CCN(c4ccccc4OC)CC3)c3cc(C(C)C)ccc3n2)cc1`, the AC50 was 25.1 µM [falling, partial curve]. Take `Cc1ccc(Cl)cc1N1CCN(C(c2ccc(F)cc2)c2nnc(-c3ccccc3)o2)CC1` (stereo unspecified): the AC50 is 10 µM [falling, partial curve]. In the case of `COC(=O)c1sccc1S(=O)(=O)N1CCN(c2cccc(C)c2C)CC1`, the AC50 is 39.8 µM [falling, single point]. As to `COCCNC(=O)C(c1ccc(C)o1)N(C(=O)c1snc(C(N)=O)c1N)c1ccc(C)cc1` (stereo unspecified), the AC50 was 631 nM [rising, single point] [measured here: IkB-luc green channel].

Take `COc1ccc2nc(NS(=O)(=O)c3ccc(C)cc3)c(Nc3cc(Cl)ccc3OC)nc2c1`: the AC50 is 7.94 µM [falling, partial curve]. On to `CCOc1ccc(-c2cc(CCCC(=O)Nc3cccc(OC)c3)no2)cc1`, for which the concentration at half-maximal activity (AC50) is 3.98 µM [rising, full curve] [measured here: IkB-luc green channel]. `O=C1CCCC2=C1C1(CCCC1)N=C(Nc1nc3ccccc3o1)N2`: the AC50 is 2 µM [falling, full curve].

For `CCN1C(=S)SC(=O)C1=C1C=C(C)OC(C)=C1`, the AC50 was 0.398 µM [rising, full curve]. On to `Cc1ccc(-c2cn3cccc(C)c3n2)cc1NS(=O)(=O)c1ccccc1`, for which the AC50 was 12.6 µM [falling, partial curve]. For the compound `Cn1nc(-c2ccc(Cl)cc2)c2cc(C(=O)NCC3CCCO3)sc21` (stereo unspecified), the concentration at half-maximal activity (AC50) is 12.6 µM [falling, partial curve].

With `COc1cccc(-c2nnc(NC(=O)c3ccc(S(=O)(=O)N4CCOCC4)cc3)o2)c1`, the AC50 is 7.94 µM [falling, full curve, poor fit]. Then `Cc1ccc(-c2nn3c(C)nnc3c3ccccc23)cc1S(=O)(=O)NCCO`, with 10 µM [rising, partial curve] [measured here: IkB-luc green channel]; and `Cc1cccc(N(CC(=O)NC(C)c2ccccc2)S(=O)(=O)c2ccccc2)c1C` (stereo unspecified), with 12.6 µM [falling, partial curve]. Then `COc1ccc(S(=O)(=O)NCCSc2ccc(C)cc2)cc1OC`, with 20 µM [falling, partial curve]. On to `CCOc1ccc(-c2cc3c(=O)n(Cc4nc(-c5cccc(OC)c5OC)oc4C)ccn3n2)cc1Cl`, for which the AC50 is 10 µM [rising, partial curve]. For `CCC(=O)N1CCc2cc(S(=O)(=O)CCC(=O)N3CCN(c4cccc(C)c4)C(C)C3)ccc21` (stereo unspecified), the AC50 was 12.6 µM [falling, partial curve]. With `Cc1ccccc1Nc1c(-c2ccsc2)nc2c(C)cccn12`, the AC50 is 20 µM [falling, partial curve]. Regarding `O=C(NCc1cccc(Cl)c1)c1cccn1-c1nnc(N2CCCC2)s1`, the AC50 was 15.8 µM [falling, partial curve].

On to `O=C(CN1C(=O)NC2(CCCC2)C1=O)Nc1nc(-c2ccc(F)cc2)cs1`, for which the AC50 is 15.8 µM [falling, partial curve].

As for `Cc1ccccc1C(=O)Nc1nnc(SCc2cc(=O)c3c(C)ccc(C)c3[nH]2)s1`, the AC50 was 0.794 µM [falling, full curve]. For the compound `CC1CCN(S(=O)(=O)c2cc(C(=O)NCc3ccc(F)cc3)n(C)c2)CC1`, the concentration at half-maximal activity (AC50) is 10 µM [falling, partial curve]. On to `COc1cccc(COC(=O)c2ccc(-c3nnn(Cc4ccccc4)n3)cc2)c1`, for which the AC50 is 0.398 µM [rising, full curve, poor fit]. On to `CCc1ccccc1NS(=O)(=O)c1ccc2[nH]cc(C(=O)NCc3ccco3)c(=O)c2c1`, for which the AC50 is 15.8 µM [falling, partial curve]. The value for `CC(C)c1ccc(C(=O)Nc2cccc3cccnc23)cc1` was 0.398 µM [rising, full curve]; that for `CC(=O)c1ccc(NC(=O)CCc2c(C)nn(-c3ccc4nncn4n3)c2C)cc1` was 0.02 µM [rising, full curve, poor fit]; that for `CSc1ccc(CCNC(=O)c2cc3n(n2)CCCN(Cc2ccc(C)cc2)C3=O)cc1` was 12.6 µM [falling, partial curve]. `O=C(CCCSc1nc(-c2ccco2)cc(C(F)(F)F)n1)Nc1ccc2c(c1)OCO2`: the AC50 was 25.1 µM [falling, single point]. The value for `O=C(Nc1sc2c(c1C(=O)NCc1ccccc1)CCCC2)c1cc(=O)c2cc(Cl)ccc2o1` was 39.8 µM [falling, single point]. For `CCc1ccccc1N1CC(c2nc3ccccc3n2Cc2cccc(C)c2)CC1=O` (stereo unspecified), the half-maximal activity concentration (AC50) is 20 µM [falling, partial curve]. Consider `CCOc1ccc(S(=O)(=O)NCCc2sc(-c3ccc(C)cc3)nc2C)cc1`, for which the AC50 is 0.316 µM [falling, full curve]. Then `COc1ccc(Cl)c(N2CCN(CCCNC(=O)Nc3ccc(C)cc3)CC2)c1`, with 15.8 µM [falling, partial curve]. The value for `O=C(Nc1cccnc1Cl)c1cc(-c2ccc(Cl)cc2)on1` was 3.98 µM [falling, partial curve, poor fit].

For the compound `O=c1c2ccccc2n2c(-c3ccc(F)c(F)c3)nnc2n1CCc1ccccc1`, the AC50 is 39.8 µM [falling, single point]. The value for `CCOC(=O)c1c(S(=O)(=O)N2CCCC(C(=O)Nc3ccc(C)cc3C)C2)c(C)n(CC)c1C` (stereo unspecified) was 3.98 µM [falling, partial curve]. Then `O=C(CSc1nnc(Cc2cccs2)n1C1CCCCC1)N1CCCc2ccccc21`, with 6.31 µM [falling, partial curve]. The value for `CCOc1ccc(S(=O)(=O)Nc2ccc3c(c2)c(C(C)=O)c(C)n3S(=O)(=O)c2ccc(OCC)cc2)cc1` was 10 µM [falling, partial curve]; that for `CCOC(=O)C1CCN(C(=O)CSc2c3c(nc4ccc(Cl)cc24)CCCC3)CC1` was 10 µM [falling, partial curve]. Turning to `O=C(NCc1ccc(Cl)cc1)C(=O)NCC(c1ccco1)S(=O)(=O)c1cccs1` (stereo unspecified), the AC50 was 25.1 µM [falling, single point]. Consider `CCCCNC(=O)c1ccc2c(=O)n(-c3ccccc3)c(=O)[nH]c2c1`, for which the AC50 is 6.31 µM [falling, partial curve]. With `CSc1ccc(S(=O)(=O)NCCOc2ccccc2C)cc1`, the half-maximal activity concentration (AC50) was 7.94 µM [falling, partial curve]. Consider `c1ccc(OCCSc2nnnn2-c2ccccc2)cc1`, for which the AC50 is 20 µM [falling, single point]. The value for `COc1cc(OC)cc(C(=O)Nc2ccc3nc(N4CCC(C)CC4)cc(C)c3c2)c1` was 3.98 µM [falling, full curve, poor fit]; that for `O=C(CCNc1ccc(Cl)c(C(F)(F)F)c1)c1ccco1` was 15.8 µM [falling, partial curve]. Take `Cc1noc(C)c1S(=O)(=O)N1CCC(C(=O)N2CCN(c3ccccc3Cl)CC2)CC1`: the AC50 was 20 µM [falling, partial curve].

Consider `Cc1ccc2c(CC(=O)Nc3cc(C(F)(F)F)ccc3Cl)coc2c1C`, for which the half-maximal activity concentration (AC50) was 20 µM [falling, partial curve].
